# Test results: patent publication US20070066595A1, “Selective estrogen receptor modulators” (priority 2004, published 2007)
# Some of these results come from one statement about several compounds together.
# Test system: Ishikawa human endometrial tumor cells
# Assay: Ishikawa Cell Proliferation Assay (alkaline phosphatase readout; agonist and antagonist modes)
# Assay type: cell-based
# Conditions: agonist mode, compound alone
# Protocol: Ishikawa Cell Proliferation Assay: This assay measures cell proliferation (using an alkaline phosphatase readout) in both an agonist mode in the presence of a compound of the present invention alone, and in an antagonist mode in which the ability of a compound of the present invention to block estradiol stimulation of growth is measured.
# Ishikawa human endometrial tumor cells are maintained in MEM (minimum essential medium, with Earle's salts and L-Glutamine, Gibco BRL, Gaithersburg, Md.), supplemented with 10% fetal bovine serum (FBS) (V/V), (Gibco BRL). One day prior to assay, growth media is changed to assay medium, DMEM/F-12 (3:1) (Dulbecco's Modified Eagle Medium: Nutrient Mixture F-12, 3:1 Mixture, phenol red-free, Gibco BRL) supplemented with 5% dextran coated charcoal stripped fetal bovine serum (DCC-FBS) (Hyclone, Logen, Utah), L-Glutamine (2 mM), MEM sodium pyruvate (1 mM), HEPES (N-[2-hydroxyethyl]piperazine-N′-[2-ethanesulfonic acid]2 mM) all from Gibco BRL). After an overnight incubation, Ishikawa cells are rinsed with Dulbecco's Phosphate Buffered Saline (1×) (D-PBS) without Ca^+2 and Mg^+2 (Gibco BRL), and trypsinized by a 3 minute incubation with 0.25% Trypsin/EDTA, phenol red-free (Gibco BRL). Cells are resuspended in assay medium and adjusted to 250,000 cells/mL. Approximately 25,000 cells in a 100 ul media are added to flat-bottom 96 wells microculture plates (Costar 3596) and incubated at 37° C. in a 5% CO2 humidified incubator for 24 hours. The next day, serial dilutions of compounds are prepared in assay medium (at 6 times the final concentration in the assay). The assay is run in dual mode, agonist and antagonist modes. For the agonist mode, plates receive 25 μl/well of assay medium followed by 25 μl/well of a diluted compound of the present invention (at 6× the final concentrations).
# For the antagonist mode, plates receive 25 μl/well of 6 nM E2 (β-Estradiol, Sigma, St. Louis, Mo.) followed by 25 μl/well of a diluted compound of the present invention (at 6× the final concentrations). After an additional 48-hour incubation at 37° C. in a 5% CO2 humidified incubator, media is aspirated from wells and 100 μl fresh assay medium is added to each microculture. Serial dilutions of compounds are prepared and added to the cells as described above. After an additional 72 hour incubation at 37° C. in a 5% CO2 humidified incubator, the assay is quenched by removing media and rinsing plates twice in Dulbecco's Phosphate Buffered Saline (1×) (D-PBS) (Gibco BRL). The plates are dried for 5 minutes and frozen at −70° C. for at least 1 hour. The plates are then removed from the freezer and allowed to thaw at room temperature. To each well, 100 μl of 1Step™ PNPP (Pierce Chemical Company, Rockford, Ill.) is added. After a 20-minute incubation, plates are read on a spectophotometer at 405 nm.
# The data is fitted to a linear interpolation to derive EC50 (for agonist mode) or IC50 (for antagonist mode) values. For the antagonist mode, a % efficacy for each compound is calculated versus E2 (1 nM) alone. For the agonist mode, a % efficacy for each compound is calculated versus the response to tamoxifen.
row,SMILES,stimulation compared with tamoxifen
1,"CS(=O)(=O)C1CC=C(c2ccc3cc(O)ccc3c2Oc2ccc(OCCN3CCCCC3)cc2)CC1.Cl (racemic) [Example 2, (+/−)-6-(4-Methanesulfonyl-cyclohex-1-enyl)-5-[4-(2-piperidin-1-yl-ethoxy)-phenoxy]-naphthalen-2-ol Hydrochloride]",less stimulatory than tamoxifen
2,"CS(=O)(=O)C1CCC(c2ccc3cc(O)ccc3c2Oc2ccc(OCCN3CCCCC3)cc2)CC1.Cl (stereo not drawn) [Example 3, 6-cis-and-trans-(4-Methanesulfonyl-cyclohexyl)-5-[4-(2-piperidin-1-yl-ethoxy)-phenoxy]-naphthalen-2-ol Hydrochloride]",less stimulatory than tamoxifen
3,"Cl.O=S1(=O)CC=C(c2ccc3cc(O)ccc3c2Oc2ccc(OCCN3CCCCC3)cc2)CC1 [Example 9, 6-(1,1-Dioxo-1,2,3,6-tetrahydro-1λ^6-thiopyran-4-yl)-5-[4-(2-piperidin-1-yl-ethoxy)-phenoxy]-naphthalen-2-ol Hydrochloride]",less stimulatory than tamoxifen
4,"Cl.O=S1(=O)CCC(c2ccc3cc(O)ccc3c2Oc2ccc(OCCN3CCCCC3)cc2)CC1 [Example 10, 6-(1,1-Dioxo-hexahydro-1λ^6-thiopyran-4-yl)-5-[4-(2-piperidin-1-yl-ethoxy)-phenoxy]-naphthalen-2-ol Hydrochloride]",less stimulatory than tamoxifen
5,"Oc1ccc2c(Oc3ccc(OCCN4CCCCC4)cc3)c(C3CCSCC3)sc2c1 [Example 12, 3-[4-(2-Piperidin-1-yl-ethoxy)-phenoxy]-2-(tetrahydro-thiopyran-4-yl)-benzo[b]thiophen-6-ol]",less stimulatory than tamoxifen
6,"Cl.O=S1(=O)CCC(c2sc3cc(O)ccc3c2Oc2ccc(OCCN3CCCCC3)cc2)CC1 [Example 13, 2-(1,1-Dioxo-hexahydro-1λ^6-thiopyran-4-yl)-3-[4-(2-piperidin-1-yl-ethoxy)-phenoxy]-benzo[b]thiophen-6-ol hydrochloride]",less stimulatory than tamoxifen
